From PubChem BioAssay AID588499 (NMMLSC, 2011)
About 610 (0.17%) of roughly 360,000 compounds were called active. Inconclusive results, whose numbers are uncertain, are shown with a selection of clear calls. Cut-off read from the data, not from the text of the source: active = inhibition above about 30%; inconclusive = no clear call, values can overlap the other calls; inactive = below that.

Test system: Botulinum neurotoxin type A light chain protease (Clostridium botulinum A str. ATCC 3502)
Experiment: blockers of BoNT/A LC substrate cleavage – biochemical, flow cytometry, MLPCN library, primary screen (AID 588499); note: plate controls were buffer without enzyme for full effect and enzyme alone for no effect
Conditions: multiplex microsphere protease substrate cleavage, at 10 µM, stronger effect = higher value

| SMILES | inhibition |
| --- | --- |
| O=C(N/N=C\c1c(O)ccc2ccccc12)c1cncc(Br)c1 | active: 41.6% |
| CCCCCNC(=O)c1cc(S(=O)(=O)N2CCCCC2)ccc1F | inconclusive: 2.2% |
| CN(C(=O)Cc1c(C(=O)O)n(C)c2ccccc12)c1cccc(C(F)(F)F)c1 | inactive: -1% |
| Cc1ccc([N+](=O)[O-])cc1NC(=O)c1ccc(C(C)(C)C)cc1 | inconclusive: -2.3% |
| Cc1cccc(OCCSc2nc3ccccc3n2CCC(=O)O)c1 | inconclusive: -2.3% |
| Cc1cc(=O)[nH]c(-c2ccc(C(F)(F)F)cc2)n1 | inconclusive: -5.9% |
| CCn1c(SCc2nc3ccccc3[nH]2)nnc1-c1cccnc1 | inconclusive: -3.2% |
| CN(C)C(=S)Nc1ccc(Br)c(Cl)c1 | inconclusive: -6.6% |
| Nc1c(C(=O)NC23CC4CC(CC(C4)C2)C3)sc2nc3c(c(C(F)(F)F)c12)CCC3 | inconclusive: -2% |
| CC(C)C12CN(C(=O)c3ccccc3[N+](=O)[O-])CC(C(C)C)(CN(C(=O)c3ccccc3[N+](=O)[O-])C1)C2=O | inconclusive: -50.1% |
| Cc1cc2ccccc2n1CCNC(=O)C1CCCC1 | active: 163% |
| O=C(c1ccc(Cl)cc1)c1oc2ccccc2c1CS(=O)c1ccc(Cl)cc1 (configuration not stated) | inconclusive: 2.3% |
| C[C@@H]1CN([C@@H](C)CO)C(=O)CCCn2nncc2CO[C@@H]1CN(C)S(=O)(=O)c1ccccc1C#N | inactive: 0.4% |
| COc1ccccc1NC(=O)Nc1c(C)n(C)n(-c2ccccc2)c1=O | inconclusive: 1.4% |
| O=C(COc1ccc(Br)cc1)NCCCNC(=O)c1cccnc1 | inactive: 0.6% |
| O=[N+]([O-])c1cccnc1N1CCOCC1 | inconclusive: 6.4% |
| COc1ccc(-n2c(CNc3ccc(C)cc3)nnc2SCC(=O)Nc2nc(-c3ccccc3)cs2)cc1 | inconclusive: -2% |
| CCOC(=O)CC1=C(C(=O)OCC)C2(C(=O)Nc3ccccc32)C(C#N)=C(N)O1 (configuration not stated) | inactive: -1.3% |
| COC(=O)c1[nH]c2cc(OC)ccc2c1NC(=O)c1c(F)cccc1F | inconclusive: 5% |

| SMILES | inhibition |
| --- | --- |
| CN1C(=O)/C(=C\c2ccc(-c3ccccc3)o2)SC1=S | active: 66.9% |
| CC(=O)c1cc(C(=O)N2CCc3c([nH]c4ccccc34)C2C2CCCCC2)[nH]n1 (configuration not stated) | inactive: -0.1% |
| OCc1nc2ccccc2n1CC(O)Cn1ccc2ccccc21 (configuration not stated) | inactive: -0.6% |
| C=CCc1cccc(CNc2nc3ccccc3n2C(C)C)c1O | inconclusive: 1.9% |
| N#Cc1ccccc1S(=O)(=O)Nc1ccc2c(c1)OCCO2 | inactive: 1.3% |
| NNc1ccc2c(C(F)(F)F)cc(C(F)(F)F)nc2n1 | inactive: -1% |
| COc1ccc(CCNC(=O)CCn2c(SCC#N)nc3ccccc3c2=O)cc1OC | inconclusive: 1% |
| O=C(c1nn2c(C(F)(F)F)cc(-c3cccs3)nc2c1Br)N1CCCc2ccccc21 | active: 46.7% |
| Cc1cc(C)c(C#N)c(Nc2ccccc2C)n1 | inconclusive: 5.8% |
| O=C(Nc1ccc(C(=O)O)cc1)/C(=C\C=C\c1ccccc1)NC(=O)c1ccccc1Br | inactive: 2.1% |
| CCOC(=O)c1ccc(N2N=C(C)/C(=C/C=C/c3ccco3)C2=O)cc1 | inconclusive: -1.7% |
| Cc1cc(-c2csc3nc[nH]c(=S)c23)cc(C)c1C | inactive: 0.8% |
| CC1CCc2c(sc(NC(=O)CSc3nc(N)cc(=O)[nH]3)c2C(N)=O)C1 (configuration not stated) | inconclusive: -3.2% |
| CCNC(=O)C1CCCN(C(=O)c2cccs2)CC1 (configuration not stated) | inactive: -0.1% |
| CCCCn1cnc2c(c(-c3ccccc3)c(-c3ccccc3)n2Cc2ccco2)c1=N | inactive: -6.4% |
| CC(Sc1ccccc1)C(=O)NNC(=O)c1ccncc1 (configuration not stated) | inactive: 4.9% |
| S=C(NCCSCc1c(Cl)cccc1Cl)Nc1ccccc1 | inconclusive: -216% |
| COc1cccc(C(=O)NNC(=O)c2cccnc2)c1 | inactive: -0.7% |
| CC(C)(C)OC(=O)NCc1n[nH]c(=S)n1C1CC1 | inconclusive: -31.5% |

A few values from the entries so far:
In inhibition, CC(C)(C)OC(=O)NCc1n[nH]c(=S)n1C1CC1 shows inconclusive: -31.5%
In inhibition, CCOC(=O)c1ccc(N2N=C(C)/C(=C/C=C/c3ccco3)C2=O)cc1 shows inconclusive: -1.7%
In inhibition, O=C(c1nn2c(C(F)(F)F)cc(-c3cccs3)nc2c1Br)N1CCCc2ccccc21 shows active: 46.7%
In inhibition, CC(Sc1ccccc1)C(=O)NNC(=O)c1ccncc1 (configuration not stated) shows inactive: 4.9%

(continued)

| SMILES | inhibition |
| --- | --- |
| Nc1nonc1C(=O)OCC(=O)N1CCOCC1 | inconclusive: -3% |
| O=C(NCc1ccccc1)c1cccc(OCC(=O)N2CCN(C(=O)c3ccco3)CC2)c1 | inconclusive: 0.6% |
| CC(C)(C)OC(=O)Nc1ncnc2c1ncn2C1OC(CO)C2OC(C)(C)OC21 (configuration not stated) | inconclusive: -7.3% |
| Cc1ccc(Nc2cnn(C34CC5CC(CC(CC(=O)O)(C5)C3)C4)c(=O)c2Cl)cc1 | inactive: -1.2% |
| N=c1c2c(-c3ccccc3)c(-c3ccccc3)n(Cc3ccccc3)c2ncn1CCO | inconclusive: -1.7% |
| Cc1ccc(C(=O)N/N=C/c2ccc(-c3cccc(Cl)c3)o2)cn1 | inconclusive: -34.4% |
| CN(C(=O)COC(=O)C1CCN(S(=O)(=O)c2ccc3c(c2)OCCO3)CC1)C1CCS(=O)(=O)C1 (configuration not stated) | inconclusive: -3.1% |
| CC(C)n1nc(C(=O)Nc2nnc(SCc3c(Cl)cccc3Cl)s2)c2ccccc2c1=O | inactive: 9.7% |
| Cn1c(SCC(=O)NNC(=O)Cc2ccccc2)nc2ccccc2c1=O | inactive: -0.4% |
| COCCOC(=O)c1c(C)n(C)c2ccc(OC(=O)c3ccco3)cc12 | inconclusive: 2.5% |
| COc1ccc(-c2nc3ccccc3c(=O)n2-c2c(C)n(C)n(-c3ccccc3)c2=O)cc1 | inconclusive: 19.7% |
| O=C(C1CCCCC1)N1CCN(C(=O)C2CCCCC2)CC1 | inconclusive: -3.5% |
| CCCN(CCC)Cc1cc(=O)oc2cc(C)c(C)cc12 | inactive: 0.2% |
| O=C(O)c1ccc(Sc2nnc(-c3cccc(Br)c3)o2)c([N+](=O)[O-])c1 | inconclusive: -0.4% |
| CCN(CCCNC(=O)COc1cc(=O)n(CC)c2ccccc12)c1ccccc1 | inconclusive: 5.5% |
| CC(C)CNC(=S)NC(=O)c1csc([N+](=O)[O-])c1 | inconclusive: -48.2% |
| CCOc1cc2c3c(c1)C1(Nc4ccccc4S1)C(=O)N3C(C)(C)CC2C (configuration not stated) | inconclusive: -1.6% |
| O=C(CC1CCCCC1)NCCS(=O)(=O)N1CCN(c2ccccc2)CC1 | inconclusive: 3.4% |
| CCCCCCc1cc2cc(-c3nnc(-c4ccccc4OC)o3)c(=O)oc2cc1O | inconclusive: 1.5% |
